# Some of the results follow. Repeats are few or missing, and single values can be far off.
# System: Saccharomyces cerevisiae BY4743
# Experiment: growth (OD600) relative to untreated control; higher = less growth inhibition
# Settings: compound concentration: 133 uM; 20 h
# Protocol: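 NMCCC compounds (133 uM, no IPBC) tested alone against Saccharomyces cerevisiae BY4743 in YPD, 96-well plates, starting OD600 ~0.1. Growth was read as OD600 at 20 h and expressed as % of the untreated control. Single pass.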
row,SMILES,growth [%]
1,COC(=O)\C1=C\N\C=C(/C1C2=CC=C(OC)C(=C2)O)C(=O)OC,99.9
2,COC1=CC=CC2=C1N(CC3=CC=CC(=C3)Cl)\C=C(C#N)/C2=O,105
3,CCC(C)(C)C1CCC(NC(=O)c2ccc(N3CCOCC3)nc2)CC1 (stereo unspecified),111
4,C=C1N(CCc2ccccn2)C(=O)OC12CCCCC2,84.3
5,CCC(C(=O)Nc1nc2nc(C)cc(O)n2n1)c1ccccc1 (stereo unspecified),83.6
6,COCc1nc2ccccc2n1CC(O)COc1ccccc1 (stereo unspecified),110
7,CCC(C)NS(=O)(=O)c1ccc2c(c1)N(C)CCO2 (stereo unspecified),103
8,Cc1cc(C(=O)OCC(=O)c2ccc[nH]2)c(C)n1Cc1cccs1,98.7
9,NS(=O)(=O)c1ccc(CCN2C(=O)NC(NC(=O)c3ccccc3)(C(F)(F)F)C2=O)cc1 (stereo unspecified),95.2
10,COC(=O)c1cc(OCC(=O)c2ccc[nH]2)cc(C(=O)OC)c1,100
11,COC1=CC=CC=C1C(=O)N\C2=C\N=C3\S\C=C/N3C2=O,97.7
12,Cc1cc(S(=O)(=O)N(C)C)cc(NC(=O)c2c(-c3c(F)cccc3Cl)noc2C)c1C,108
13,Cc1nc(C)c(C#N)c(SCc2nc(O)c3cccc(C)c3n2)n1,109
14,CCOC(=O)c1c(C)[nH]c(C)c1S(=O)(=O)NCC(=O)N1c2ccccc2CC1C (stereo unspecified),100
15,NC(=O)c1ccc(CSc2nncn2CCc2cccs2)cc1,104
16,CC(=O)N1\N=C(/OC12CCCC2)C3=CC=C(C=C3)C(C)(C)C,110

# A draw from above in order of molecular weight, descending.
row,SMILES,growth [%]
3,CCC(C)(C)C1CCC(NC(=O)c2ccc(N3CCOCC3)nc2)CC1 (stereo unspecified),111
1,COC(=O)\C1=C\N\C=C(/C1C2=CC=C(OC)C(=C2)O)C(=O)OC,99.9
5,CCC(C(=O)Nc1nc2nc(C)cc(O)n2n1)c1ccccc1 (stereo unspecified),83.6

# From the supplement of paper PMC8007513
